Experimental data as given in paper PMC8782881.
Changes are numbered by the printed parent chain. Names may count otherwise. These are yes or no findings as the source states them, for the method shown. In cells and extracts the contact can be indirect. Some entries that bind do so weakly or less than the wild type. Tags and fused reporters may be left off the sequences shown.

B1: Flag-HA-tagged USP4 (enzyme, UniProt Q13107 1-963)
chain: MAEGGGCRERPDAETQKSELGPLMRTTLQRGAQWYLIDSRWFKQWKKYVGFDSWDMYNVGEHNLFPGPIDNSGLFSDPESQTLKEHLIDELDYVLVPTEAWNKLLNWYGCVEGQQPIVRKVVEHGLFVKHCKVEVYLLELKLCENSDPTNVLSCHFSKADTIATIEKEMRKLFNIPAERETRLWNKYMSNTYEQLSKLDNTVQDAGLYQGQVLVIEPQNEDGTWPRQTLQSKSSTAPSRNFTTSPKSSASPYSSVSASLIANGDSTSTCGMHSSGVSRGGSGFSASYNCQEPPSSHIQPGLCGLGNLGNTCFMNSALQCLSNTAPLTDYFLKDEYEAEINRDNPLGMKGEIAEAYAELIKQMWSGRDAHVAPRMFKTQVGRFAPQFSGYQQQDSQELLAFLLDGLHEDLNRVKKKPYLELKDANGRPDAVVAKEAWENHRLRNDSVIVDTFHGLFKSTLVCPECAKVSVTFDPFCYLTLPLPLKKDRVMEVFLVPADPHCRPTQYRVTVPLMGAVSDLCEALSRLSGIAAENMVVADVYNHRFHKIFQMDEGLNHIMPRDDIFVYEVCSTSVDGSECVTLPVYFRERKSRPSSTSSASALYGQPLLLSVPKHKLTLESLYQAVCDRISRYVKQPLPDEFGSSPLEPGACNGSRNSCEGEDEEEMEHQEEGKEQLSETEGSGEDEPGNDPSETTQKKIKGQPCPKRLFTFSLVNSYGTADINSLAADGKLLKLNSRSTLAMDWDSETRRLYYDEQESEAYEKHVSMLQPQKKKKTTVALRDCIELFTTMETLGEHDPWYCPNCKKHQQATKKFDLWSLPKILVVHLKRFSYNRYWRDKLDTVVEFPIRGLNMSEFVCNLSARPYVYDLIAVSNHYGAMGVGHYTAYAKNKLNGKWYYFDDSNVSLASEDQIVTKAAYVLFYQRRDDEFYKTPSLSSSGSSDGGTRPSSSQQGFGDDEACSMDTN
B2: full-length Flag-tagged USP17L22 (enzyme, UniProt D6RA61 1-530)
chain: MEDDSLYLGGEWQFNHFSKLTSSRPDAAFAEIQRTSLPEKSPLSCETRVDLCDDLAPVARQLAPREKLPLSSRRPAAVGAGLQNMGNTCYVNASLQCLTYTPPLANYMLSREHSQTCHRHKGCMLCTMQAHITRALHNPGHVIQPSQALAAGFHRGKQEDAHEFLMFTVDAMKKACLPGHKQVDHHSKDTTLIHQIFGGYWRSQIKCLHCHGISDTFDPYLDIALDIQAAQSVQQALEQLVKPEELNGENAYHCGVCLQRAPASKTLTLHTSAKVLILVLKRFSDVTGNKIAKNVQYPECLDMQPYMSQQNTGPLVYVLYAVLVHAGWSCHNGHYFSYVKAQEGQWYKMDDAEVTASSITSVLSQQAYVLFYIQKSEWERHSESVSRGREPRALGAEDTDRRATQGELKRDHPCLQAPELDEHLVERATQESTLDHWKFLQEQNKTKPEFNVRKVEGTLPPDVLVIHQSKYKCGMKNHHPEQQSSLLKLSSTTPTHQESMNTGTLASLRGRARRSKGKNKHSKRALLVCQ
B3: full-length Flag-tagged USP17L11 isoform (USP17L22 with K488N and Q310T) (enzyme, UniProt D6RA61 1-530)
chain: B2 chain with Q310T, K488N
B4: full-length Flag-tagged USP17L20 isoform (USP17L22 with K488N and Q310P) (enzyme, UniProt D6RA61 1-530)
chain: B2 chain with Q310P, K488N

Legend:
[1] = biological target: PDGF receptor β (PDGFRβ), wild-type (UniProt P09619); test: co-IP; Flag-HA-tagged DUB overexpressed together with PDGFRβ in 293T cells, starved and stimulated with PDGF-BB for indicated times; proteins immunoprecipitated 'as indicated' in the figure, eluates blotted for PDGFRβ and USP4 or USP17 (DUB3); mild lysis buffer (1% Triton X-100, 20 mM Tris, 150 mM NaCl, pH 7.5)
[2] = biological target: PDGF receptor β (PDGFRβ), wild-type (UniProt P09619); test: co-IP; PDGFRβ and Flag-tagged USP17 isoforms co-overexpressed in HEK293T, serum-starved, stimulated with PDGF-BB (20 ng/ml) for 10 min; PDGFRβ immunoprecipitated, eluates probed with Flag antibody

Binder	binding [1]	binding [2]
B1	binds	–
B2	–	binds
B3	–	binds
B4	–	binds
